Assay results taken from the supplement of paper PMC12823440, “Inhibitors supercharge kinase turnover through native proteolytic circuits” (Nature, 2025).
Some of the results follow. Hit calls seldom repeat between salt and free forms of one compound.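 In K562 cells expressing nanoluciferase-fused kinases, luminescence was recorded at 4 h intervals between 2 and 18 h, normalized as percent of control with DMSO at 100% and a positive control at 0%. A significant (2 sigma) signal drop marks a time point as decreased. The authors' rule for a hit is not shown and takes in more than the number of time points.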

Protein sequences, listed by entry. Tags and fused reporters are not part of them. Lines headed by an entry give the natural chain unless they say otherwise; changes in a name come on top.
UniProt Q13546: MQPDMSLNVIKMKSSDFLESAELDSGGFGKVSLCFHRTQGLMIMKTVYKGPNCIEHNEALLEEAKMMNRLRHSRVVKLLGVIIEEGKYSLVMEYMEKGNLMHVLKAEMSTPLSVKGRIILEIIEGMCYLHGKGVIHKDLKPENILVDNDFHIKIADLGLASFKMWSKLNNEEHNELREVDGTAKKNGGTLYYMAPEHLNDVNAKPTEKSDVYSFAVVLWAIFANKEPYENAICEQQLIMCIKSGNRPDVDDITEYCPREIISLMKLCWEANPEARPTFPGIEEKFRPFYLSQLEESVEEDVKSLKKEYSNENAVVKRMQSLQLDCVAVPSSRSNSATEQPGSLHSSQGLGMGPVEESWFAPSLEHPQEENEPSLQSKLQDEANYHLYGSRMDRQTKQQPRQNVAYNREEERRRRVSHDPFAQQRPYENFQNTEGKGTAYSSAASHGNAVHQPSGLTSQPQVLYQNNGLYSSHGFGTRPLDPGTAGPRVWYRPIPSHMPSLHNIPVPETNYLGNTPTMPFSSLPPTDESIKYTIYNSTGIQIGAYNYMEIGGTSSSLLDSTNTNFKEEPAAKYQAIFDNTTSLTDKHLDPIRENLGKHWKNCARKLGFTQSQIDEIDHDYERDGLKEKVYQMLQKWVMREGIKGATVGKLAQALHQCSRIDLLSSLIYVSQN
UniProt Q15131: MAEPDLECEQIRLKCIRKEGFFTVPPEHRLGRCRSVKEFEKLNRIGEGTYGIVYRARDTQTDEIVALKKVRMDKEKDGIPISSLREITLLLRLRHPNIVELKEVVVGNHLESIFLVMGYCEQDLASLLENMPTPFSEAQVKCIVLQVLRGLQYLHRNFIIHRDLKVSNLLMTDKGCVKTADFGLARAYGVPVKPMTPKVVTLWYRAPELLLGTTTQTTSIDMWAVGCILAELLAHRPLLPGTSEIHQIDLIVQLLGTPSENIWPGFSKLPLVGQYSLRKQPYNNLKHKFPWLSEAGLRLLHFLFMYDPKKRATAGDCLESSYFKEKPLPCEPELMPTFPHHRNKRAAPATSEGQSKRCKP
UniProt Q9NYA1, whole entry: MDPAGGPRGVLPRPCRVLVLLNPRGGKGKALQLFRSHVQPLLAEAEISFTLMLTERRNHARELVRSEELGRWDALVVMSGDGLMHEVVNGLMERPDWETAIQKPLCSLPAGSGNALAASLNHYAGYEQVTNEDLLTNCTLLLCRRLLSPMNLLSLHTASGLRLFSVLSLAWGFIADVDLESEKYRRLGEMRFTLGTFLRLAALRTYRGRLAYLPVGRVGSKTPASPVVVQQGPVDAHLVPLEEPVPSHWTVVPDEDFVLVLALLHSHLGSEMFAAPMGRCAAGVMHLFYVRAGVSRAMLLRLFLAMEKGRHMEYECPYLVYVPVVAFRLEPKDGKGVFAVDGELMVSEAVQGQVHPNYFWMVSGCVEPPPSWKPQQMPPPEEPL

Compound: N#CCNC(=O)c1ccc(-c2ccnc(Nc3ccc(N4CCOCC4)cc3)n2)cc1 [Momelotinib sulfate]
Assay: number of time points (of 5) at which kinase-Nluc abundance scored as decreased, DMSO-normalised (count); higher = more persistent destabilization
Conditions: 10 µM; K562; 2-18 h

Target	number of time points
RIPK1 (UniProt Q13546)	0
CDK10 (UniProt Q15131)	0
SPHK1 (UniProt Q9NYA1)	0
